Measurements reported in PubChem BioAssay AID504444 (National Center for Advancing Translational Sciences (NCATS), 2011).
Several values for one entry are separate records, joined by “and”; a condition that tells them apart may be missing. Identical values can stand only once. About 7,500 (2.1%) of roughly 360,000 compounds were called active. The inconclusive results got no clear call from the source; some entries with a clear call stand among them for comparison. The call rests on the fitted dose curve; in most records, active means well fitted inhibition curve with a large enough effect; inconclusive means small, poorly fitted or top-dose-only effect, or effect the other way; inactive means flat fitted curve, though single readings scatter. Where the call is inconclusive, the potency comes from a doubtful curve fit.
Potency means the concentration at half of the fitted maximal effect.

Assay: Nrf2 qHTS screen for inhibitors; further: nearly all actives have a fitted effect of over 60% in size
Conditions: A549 ARE-Fluc reporter, luciferase luminescence, 18-24 h; series mostly up to 46 µM
In short: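 In this cell-based qHTS, ARE-driven firefly luciferase in A549 cells reports Nrf2 activity; the luminescent signal after BugLite lysis is the measured value, with a prior CellTiter-Fluor read for cell health.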
With `Cc1cccc[n+]1CC(=O)c1ccc(NC(=O)c2ccccc2)cc1` the Potency was inconclusive: 32.6 µM [falling, single point]. With `CC(=O)c1cccc(NC(=O)NC2CCCCCCC2)c1` the Potency was inconclusive: 2.59 µM [activator, partial curve, poor fit]. In the case of `CN(C)c1ccc(-c2nn3c(-c4ccccc4Cl)nnc3s2)cc1`, the Potency is reported as “inactive”. For `COc1ccc(Cl)cc1NC(=O)CN1Cc2ccccc2C1=O`, the Potency was “inactive”. In the case of `N#Cc1ccc(CSc2nc(N)cc(=O)[nH]2)cc1`, the Potency is reported as inconclusive: 6.51 µM [falling, full curve, poor fit]. In the case of `Cc1cccc(NC(=S)NC(=O)/C=C/c2ccccc2)n1`, the Potency is reported as inconclusive: 9.2 µM [activator, partial curve]. For `CCn1c(Oc2cccc(Br)c2)nc2c1c(=O)n(C)c(=O)n2C`, the Potency was “inactive”. For `COc1cccc(C2C=C(c3ccc(Br)s3)Nc3ncnn32)c1OC` (stereo unspecified), the Potency was inconclusive: 25.9 µM [falling, partial curve, poor fit]. In the case of `CC(=O)Nc1cc(C(=O)N2CCCC2)ccc1Sc1ccc(C)cc1`, the Potency is reported as inconclusive: 20.6 µM [falling, partial curve, poor fit]. For `CC1=NN(CCC#N)C(=O)/C1=C/c1ccc(N(C)C)cc1`, the Potency was “inactive”. For `COc1ccc(-c2nc3cc(NC(=O)c4ccc(C)cc4)ccc3o2)cc1Cl`, the Potency was “inactive”. For `Cc1cccc(-c2nc(CN3CCCC(C(=O)NC4CCCCC4)C3)c(C)o2)c1` (stereo unspecified), the Potency was inconclusive: 1.46 µM [falling, full curve, poor fit]. With `CCOC(=O)CSc1nc2c(sc(=S)n2-c2ccc(CC)cc2)c(=O)[nH]1` the Potency was inconclusive: 9.2 µM [falling, partial curve, poor fit]. In the case of `O=C(Cc1ccc(Cl)cc1)Nc1ccc(CN2CCCCC2)cc1`, the Potency is reported as inconclusive: 9.2 µM [activator, partial curve, poor fit]. In the case of `Cc1c(O)cccc1C(=O)N[C@@H](CSc1ccccc1)[C@H](O)CN1C[C@H]2CCCC[C@H]2C[C@H]1C(=O)NC(C)(C)C`, the Potency is reported as inconclusive: 25.9 µM [falling, single point] and inconclusive: 29.1 µM [falling, single point]. In the case of `N/C(=N\OC(=O)CSc1ccccc1)c1ccccn1`, the Potency is reported as inconclusive: 20.6 µM [activator, single point]. In the case of `CCOC(=O)Nc1sc2c(c1C#N)CCCC2`, the Potency is reported as inconclusive: 4.11 µM [activator, full curve]. For `CCN(c1ccccc1)S(=O)(=O)c1ccc(NC(=O)c2nc(SC(C)C)ncc2Cl)cc1`, the Potency was “inactive”. With `CC(C)(C)c1cc(C(=O)NCc2ccccc2)ccn1` the Potency was inconclusive: 10.3 µM [falling, partial curve]. In the case of `C=CCC1(CC=C)CCCN1C(=O)C1CCC(=O)N(CCc2ccccc2)C1` (stereo unspecified), the Potency is reported as inconclusive: 1.64 µM [activator, partial curve, poor fit]. With `COc1ccccc1NC(=O)c1ccc2[nH]c(C)c(C)c2c1` the Potency was inconclusive: 13 µM [activator, partial curve]. With `Cc1cccc(CNC(=O)CN2C(=O)CSc3c2c(C)nn3-c2ccccc2)c1` the Potency was inconclusive: 23.1 µM [falling, partial curve]. With `CCOC(=O)c1cnc2ccc(OCC)cc2c1Nc1ccc(OCc2ccccc2Cl)cc1` the Potency was active: 20.6 µM. With `COc1cc(C(CC(=O)Nc2ncccc2C)N2Cc3ccccc3C2=O)cc(OC)c1OC` (stereo unspecified) the Potency was inconclusive: 14.6 µM [activator, partial curve, poor fit]. For `COc1ccc(NC(=S)Nc2ccc(N)c([N+](=O)[O-])c2)cc1`, the Potency was “inactive”. With `Cc1nc(SCCO)c([N+](=O)[O-])[nH]1` the Potency was “inactive”. For `COc1ccc(N(C)S(=O)(=O)c2cccc(C(=O)N3CCN(c4cccc(C)c4C)CC3)c2)cc1`, the Potency was inconclusive: 14.6 µM [falling, partial curve, poor fit]. With `COc1ccc(/C=C(/NC(=O)c2ccccc2)c2nc3ccc(Cl)cc3[nH]2)cc1OC` the Potency was inconclusive: 18.4 µM [falling, single point]. With `Cc1cccc(CN2C(=O)N/C(=C/c3cc(C)n(-c4cc(C)ccn4)c3C)C2=O)c1` the Potency was inconclusive: 20.6 µM [falling, single point]. For `O=C(c1ccc(COc2ccccc2Br)o1)N1CCN(c2ccccn2)CC1`, the Potency was inconclusive: 23.1 µM [falling, single point]. With `COc1ccc(-c2nc(CS(=O)CC(=O)NCc3ccc4c(c3)OCO4)c(C)o2)cc1OC` (stereo unspecified) the Potency was inconclusive: 8.2 µM [falling, partial curve, poor fit]. For `Cc1ccc(O)c(-c2n[nH]c3c2C(c2ccc(F)cc2)N(Cc2ccco2)C3=O)c1` (stereo unspecified), the Potency was “inactive”. For `O=C(COC(=O)c1cccnc1Nc1cccc(C(F)(F)F)c1)NCc1ccc2c(c1)OCO2`, the Potency was inconclusive: 18.4 µM [falling, single point]. With `Cc1cc(Cl)ccc1NC(=O)CN1C(=O)NC2(CCCc3ccccc32)C1=O` (stereo unspecified) the Potency was inconclusive: 20.6 µM [activator, single point]. With `Cn1nc(-c2ccccc2)cc1NC(=O)Nc1ccc(C(C)(C)C)cc1` the Potency was inconclusive: 14.6 µM [falling, partial curve, poor fit]. In the case of `O=C1OCCN1C(=O)[C@H]1[C@H](c2ccc(F)cc2)C(c2ccccc2)=NN1c1ccc(Br)cc1`, the Potency is reported as inconclusive: 32.6 µM [falling, single point]. With `Cc1cccc(Oc2sc(C(=O)c3ccccc3)c(N)c2C#N)c1C` the Potency was inconclusive: 32.6 µM [falling, partial curve, poor fit]. With `O=C(Nc1ccc2c(c1)OCCO2)c1cccs1` the Potency was inconclusive: 5.8 µM [activator, full curve, poor fit]. For `Cc1ccccc1NC(=O)c1cnc2ccccn2c1=O`, the Potency was inconclusive: 0.103 µM [activator, full curve, poor fit]. With `COc1ccc(C(=O)N=c2sc3ccccc3n2C)cc1` the Potency was inconclusive: 5.17 µM [activator, partial curve]. With `COc1ccc(CCNc2ncnc3onc(C)c23)c(OC)c1` the Potency was inconclusive: 2.06 µM [falling, full curve, poor fit].
